# Reference: the supplement of paper PMC7661543
# ± gives the standard deviation of the averaged measurements. Differences between knockout arms are mostly noise.
# System: SKBR3
# Experiment: relative cell number vs DMSO control (72 h) (% of DMSO); higher = less growth inhibition (more cells)
# Description: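 QMAP-Seq: a pool of 5 breast cancer cell lines (ZR-75-1, SKBR3, HCC-38, MDA-MB-231, BT-20), each carrying 12 doxycycline-inducible Cas9 sgRNA perturbations (11 knockouts plus non-targeting sgNT), was treated with compounds for 72 h at four 10-fold doses (10 nM-10 uM or 1 nM-1 uM range). Barcodes were amplified and sequenced, and cell number was interpolated from 293T spike-in standard curves. The result is expressed as % of the median of DMSO wells. Two biological replicates.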
# [1] = sgRNA knockout: sgATF3, 1000 nM
# [2] = sgRNA knockout: sgATF4, 1000 nM
# [3] = sgRNA knockout: sgATF6, 1000 nM
# [4] = sgRNA knockout: sgATG7, 1000 nM
# [5] = sgRNA knockout: sgERN1, 1000 nM
# [6] = sgRNA knockout: sgHSF1, 1000 nM
# [7] = sgRNA knockout: sgHSF2, 1000 nM
# [8] = sgRNA knockout: sgKEAP1, 100 nM
# [9] = sgRNA knockout: sgKEAP1, 1000 nM
# [10] = sgRNA knockout: sgNFE2L2, 10 nM
# [11] = sgRNA knockout: sgNFE2L2, 100 nM
# [12] = sgRNA knockout: sgNFE2L2, 1000 nM
# [13] = sgRNA knockout: sgSLC35F2, 10 nM
# [14] = sgRNA knockout: sgSLC35F2, 100 nM
# [15] = sgRNA knockout: sgSLC35F2, 1000 nM
# [16] = sgRNA knockout: sgXBP1, 1000 nM
# [17] = sgRNA knockout: sgATF3, 10000 nM
# [18] = sgRNA knockout: sgATF4, 10000 nM
# [19] = sgRNA knockout: sgATF6, 10000 nM
# [20] = sgRNA knockout: sgATG7, 10000 nM
# [21] = sgRNA knockout: sgERN1, 10000 nM
# [22] = sgRNA knockout: sgHSF1, 10000 nM
# [23] = sgRNA knockout: sgHSF2, 10000 nM
# [24] = sgRNA knockout: sgKEAP1, 10000 nM
# [25] = sgRNA knockout: sgNFE2L2, 10000 nM
# [26] = sgRNA knockout: sgSLC35F2, 10000 nM
# [27] = sgRNA knockout: sgXBP1, 10000 nM
smiles,measurement,setting,value
N#Cc1ccc(C(c2ccc(C#N)cc2)n2cncn2)cc1 [Letrozole],relative cell number,"sgRNA knockout: sgATF3, 1 nM",106 ± 18
same,relative cell number,"sgRNA knockout: sgATF3, 10 nM",86.2 ± 19
same,relative cell number,"sgRNA knockout: sgATF3, 100 nM",103 ± 47
same,relative cell number,[1],106 ± 26
same,relative cell number,"sgRNA knockout: sgATF4, 1 nM",85.3 ± 20
same,relative cell number,"sgRNA knockout: sgATF4, 10 nM",93 ± 8
same,relative cell number,"sgRNA knockout: sgATF4, 100 nM",101 ± 12
same,relative cell number,[2],76.2 ± 3
same,relative cell number,"sgRNA knockout: sgATF6, 1 nM",112 ± 2.7
same,relative cell number,"sgRNA knockout: sgATF6, 10 nM",85.23 ± 0.66
same,relative cell number,"sgRNA knockout: sgATF6, 100 nM",98.9 ± 20
same,relative cell number,[3],100 ± 26
same,relative cell number,"sgRNA knockout: sgATG7, 1 nM",94 ± 37
same,relative cell number,"sgRNA knockout: sgATG7, 10 nM",82.6 ± 38
same,relative cell number,"sgRNA knockout: sgATG7, 100 nM",92 ± 20
same,relative cell number,[4],98.8 ± 5.1
same,relative cell number,"sgRNA knockout: sgERN1, 1 nM",91.1 ± 42
same,relative cell number,"sgRNA knockout: sgERN1, 10 nM",77.8 ± 25
same,relative cell number,"sgRNA knockout: sgERN1, 100 nM",95.5 ± 17
same,relative cell number,[5],83.4 ± 26
same,relative cell number,"sgRNA knockout: sgHSF1, 1 nM",105 ± 13
same,relative cell number,"sgRNA knockout: sgHSF1, 10 nM",91.2 ± 2.9
same,relative cell number,"sgRNA knockout: sgHSF1, 100 nM",111 ± 37
same,relative cell number,[6],106 ± 1.7
same,relative cell number,"sgRNA knockout: sgHSF2, 1 nM",102 ± 17
same,relative cell number,"sgRNA knockout: sgHSF2, 10 nM",83.3 ± 16
same,relative cell number,"sgRNA knockout: sgHSF2, 100 nM",81.7 ± 11
same,relative cell number,[7],95.9 ± 5.5
same,relative cell number,"sgRNA knockout: sgKEAP1, 1 nM",73 ± 15
same,relative cell number,"sgRNA knockout: sgKEAP1, 10 nM",79.9 ± 19
same,relative cell number,[8],93.2 ± 7.2
same,relative cell number,[9],97.9 ± 4.1
same,relative cell number,"sgRNA knockout: sgNFE2L2, 1 nM",96.2 ± 9.1
same,relative cell number,[10],95.5 ± 4.5
same,relative cell number,[11],84.3 ± 16
same,relative cell number,[12],99.1 ± 12
same,relative cell number,"sgRNA knockout: sgSLC35F2, 1 nM",100 ± 13
same,relative cell number,[13],71.6 ± 35
same,relative cell number,[14],98.9 ± 9.6
same,relative cell number,[15],79 ± 11
same,relative cell number,"sgRNA knockout: sgXBP1, 1 nM",81.8 ± 14
same,relative cell number,"sgRNA knockout: sgXBP1, 10 nM",60.4 ± 7.2
same,relative cell number,"sgRNA knockout: sgXBP1, 100 nM",96.5 ± 11
same,relative cell number,[16],89.6 ± 2.1
CC[C@H](Nc1ncnc2[nH]cnc12)c1nc2cccc(F)c2c(=O)n1-c1ccccc1 [CAL101],relative cell number,"sgRNA knockout: sgATF3, 10 nM",91.4 ± 9.6
same,relative cell number,"sgRNA knockout: sgATF3, 100 nM",78.4 ± 39
same,relative cell number,[1],112 ± 6.4
same,relative cell number,[17],75.4 ± 2.9
same,relative cell number,"sgRNA knockout: sgATF4, 10 nM",75.3 ± 3.3
same,relative cell number,"sgRNA knockout: sgATF4, 100 nM",106 ± 24
same,relative cell number,[2],101 ± 6.7
same,relative cell number,[18],89 ± 28
same,relative cell number,"sgRNA knockout: sgATF6, 10 nM",66.9 ± 4.1
same,relative cell number,"sgRNA knockout: sgATF6, 100 nM",80.7 ± 11
same,relative cell number,[3],91.2 ± 19
same,relative cell number,[19],98.7 ± 20
same,relative cell number,"sgRNA knockout: sgATG7, 10 nM",99.2 ± 23
same,relative cell number,"sgRNA knockout: sgATG7, 100 nM",73.3 ± 13
same,relative cell number,[4],96.5 ± 22
same,relative cell number,[20],102 ± 13
same,relative cell number,"sgRNA knockout: sgERN1, 10 nM",73.9 ± 14
same,relative cell number,"sgRNA knockout: sgERN1, 100 nM",78.8 ± 28
same,relative cell number,[5],113 ± 12
same,relative cell number,[21],99.1 ± 9.1
same,relative cell number,"sgRNA knockout: sgHSF1, 10 nM",71.7 ± 3.9
same,relative cell number,"sgRNA knockout: sgHSF1, 100 nM",89.2 ± 15
same,relative cell number,[6],86.2 ± 2.2
same,relative cell number,[22],102 ± 30
same,relative cell number,"sgRNA knockout: sgHSF2, 10 nM",87.65 ± 0.45
same,relative cell number,"sgRNA knockout: sgHSF2, 100 nM",89.5 ± 2.4
same,relative cell number,[7],103 ± 4.9
same,relative cell number,[23],90.5 ± 34
same,relative cell number,"sgRNA knockout: sgKEAP1, 10 nM",76.9 ± 16
same,relative cell number,[8],83.1 ± 5.2
same,relative cell number,[9],94.5 ± 2.8
same,relative cell number,[24],81.8 ± 11
same,relative cell number,[10],74.6 ± 6.2
same,relative cell number,[11],67.9 ± 8.9
same,relative cell number,[12],82.8 ± 1.7
same,relative cell number,[25],85.3 ± 31
same,relative cell number,[13],88.2 ± 2.6
same,relative cell number,[14],106 ± 12
same,relative cell number,[15],97.5 ± 7.9
same,relative cell number,[26],74.72 ± 0.3
same,relative cell number,"sgRNA knockout: sgXBP1, 10 nM",78.324 ± 0.053
same,relative cell number,"sgRNA knockout: sgXBP1, 100 nM",105 ± 42
same,relative cell number,[16],106 ± 13
same,relative cell number,[27],98.9 ± 20
C=C1C(=O)O[C@H]2[C@H]1CC/C(C)=C/CC[C@@]1(C)O[C@@H]21 [Parthenolide],relative cell number,"sgRNA knockout: sgATF3, 10 nM",103 ± 15
same,relative cell number,"sgRNA knockout: sgATF3, 100 nM",121 ± 11
same,relative cell number,[1],121 ± 49
same,relative cell number,[17],112.8 ± 0.65
same,relative cell number,"sgRNA knockout: sgATF4, 10 nM",123 ± 7.3
same,relative cell number,"sgRNA knockout: sgATF4, 100 nM",114 ± 3.4
same,relative cell number,[2],93.8 ± 17
same,relative cell number,[18],93.4 ± 3.6
same,relative cell number,"sgRNA knockout: sgATF6, 10 nM",109 ± 27
same,relative cell number,"sgRNA knockout: sgATF6, 100 nM",95.5 ± 3.5
same,relative cell number,[3],114 ± 15
same,relative cell number,[19],91.74 ± 0.88
same,relative cell number,"sgRNA knockout: sgATG7, 10 nM",111 ± 9.7
same,relative cell number,"sgRNA knockout: sgATG7, 100 nM",109 ± 10
same,relative cell number,[4],75 ± 3.3
same,relative cell number,[20],96.4 ± 2.5
same,relative cell number,"sgRNA knockout: sgERN1, 10 nM",111 ± 14
same,relative cell number,"sgRNA knockout: sgERN1, 100 nM",108 ± 2.5
same,relative cell number,[5],118 ± 18
same,relative cell number,[21],113 ± 25
same,relative cell number,"sgRNA knockout: sgHSF1, 10 nM",93.9 ± 30
same,relative cell number,"sgRNA knockout: sgHSF1, 100 nM",111 ± 36
same,relative cell number,[6],84.648 ± 0.078
same,relative cell number,[22],111.99 ± 0.013
same,relative cell number,"sgRNA knockout: sgHSF2, 10 nM",108 ± 18
same,relative cell number,"sgRNA knockout: sgHSF2, 100 nM",99.3 ± 5.2
same,relative cell number,[7],99.5 ± 15
same,relative cell number,[23],103 ± 8.8
same,relative cell number,"sgRNA knockout: sgKEAP1, 10 nM",87.8 ± 2.7
same,relative cell number,[8],101 ± 13
same,relative cell number,[9],88.6 ± 12
same,relative cell number,[24],99.3 ± 2.9
same,relative cell number,[10],105.5 ± 0.2
same,relative cell number,[11],105 ± 7.6
same,relative cell number,[12],107 ± 4.2
same,relative cell number,[25],131 ± 20
same,relative cell number,[13],111 ± 23
same,relative cell number,[14],105 ± 18
same,relative cell number,[15],89.5 ± 13
same,relative cell number,[26],91.9 ± 2.4
same,relative cell number,"sgRNA knockout: sgXBP1, 10 nM",112 ± 3.8
same,relative cell number,"sgRNA knockout: sgXBP1, 100 nM",112 ± 17
same,relative cell number,[16],92.8 ± 20
same,relative cell number,[27],98 ± 9.8

# 4 records drawn at random from those above, as already listed:
smiles,measurement,setting,value
CC[C@H](Nc1ncnc2[nH]cnc12)c1nc2cccc(F)c2c(=O)n1-c1ccccc1 [CAL101],relative cell number,[22],102 ± 30
same,relative cell number,"sgRNA knockout: sgXBP1, 100 nM",105 ± 42
same,relative cell number,[23],90.5 ± 34
N#Cc1ccc(C(c2ccc(C#N)cc2)n2cncn2)cc1 [Letrozole],relative cell number,[12],99.1 ± 12
